# According to patent publication US20250346588A1, “IMIDAZOPYRIDINE AND OXAZOLOPYRIDINE DERIVATIVES AND ANALOGS THEREOF, METHODS OF PREPARATION THEREOF, METHODS OF HIF-1/2A PATHWAY INHIBITION, AND INDUCTION OF FERROPTOSIS” (KUDA THERAPEUTICS, INC., priority 2022, published 2025):
# Test system: HIF-2α transcriptional activity
# Experiment: Hypoxia-responsive element-driven luciferase (HRE-Luc) screen
# Type: cell-based, human
# Conditions: 786-0 HRE-Luc cells, 24 h; data of FIG. 1
# Protocol: Screens for inhibitory activity of compounds described herein were performed using 786-0 ccRCC cells that stably express HRE-Luc: 5 copies of the hypoxia-responsive element (HRE) fused to the pGL3 luciferase reporter (Promega Corp, Madison WI). 786-0 cells are pVHL deficient and thus constitutively express HIF-2α independently of cellular oxygen tension. Since 786-0 cells lack HIF-1α, HRE-driven luciferase activity is primarily HIF-2α driven, and has been previously validated. Cells were maintained at log phase growth in […] (DMEM) with 10% FBS in a humidified incubator at 37° C. with 5% CO2. For screening assays, cells were seeded at a density of 4,000 cells in 50 μl of complete media/well in quadruplicate wells/point in a 96-well plate. After 24 h, 50 μl of a 2× concentration of test compound was added to each well. Compounds were diluted from a 5-10 mM stock in DMSO and final concentrations of DMSO in each well in controls and treated wells were kept constant at ≤0.6% DMSO. After 24 h treatment, luciferase activity was measured using the Steady-Glo Luciferase assay system (Promega Corp) according to the manufacturer's protocol. Cell viability was measured in quadruplicate parallel wells using resazurin as recommended by the manufacturer (R&D systems, Minneapolis, MN). Data for luciferase and resazurin were normalized to DMSO treated controls (defining 100%) and wells containing assay reagent but no cells (defining 0%) and graphed using the log inhibitor versus normalized response option in Graphpad Prism 9.3.1 software. Representative data determined using Steady-Glo luciferase and resazurin are shown in FIGS. 1A and 1B respectively, with error bars showing SD. Filled diamonds, empty squares and empty triangles indicate treatment with 3, 8 and 22 respectively with results for HRE-Luc shown in FIG. 1A.
row,SMILES,ratio of resazurin IC50 to HRE-Luc IC50
1,"COc1ccc(-c2nnc(Nc3nc4c(OC)nccc4[nH]3)o2)cc1 [Compound 22, N-(4-methoxy-1H-imidazo[4,5-c]73yridine-2-yl)-5-(4-methoxyphenyl)-1,3,4-oxadiazol-2-amine]",2.75
2,"COc1nccc2[nH]c(Nc3nnc(-c4ccc(F)cc4)o3)nc12 [Compound 3, 5-(4-Fluorophenyl)-N-(4-methoxy-1H-imidazo[4,5-c]pyridin-2-yl)-1,3,4-oxadiazol-2-amine]",39.05
3,"Fc1ccc(-c2nnc(Nc3nc4ncccc4o3)o2)cc1 [Compound 8, N-(5-(4-Fluorophenyl)-1,3,4-oxadiazol-2-yl)oxazolo[4,5-b]pyridin-2-amine]",3.2
